Values quoted from earlier work in patent US11523999B2, “Compositions comprising a fatty aged oil mixture and a free fatty acid, and methods and uses thereof” (Pronova Biopharma Norge AS, priority 2009, dated 2022).
For at least one compound, name, drawing or mass did not settle the structure.

Conditions: Other surfactants, Table 7

SMILES: CCCCCCCCCCCCCCCC[n+]1ccccc1 [Cetylpyridinium chloride]
- HBL Value: 26.0
